Laboratory results as given in PMC5996148.
This is one part of the list. For some of these results: The source does not settle which construct or isoform was used.

Assays:
Assay in all cases: protein microarray (ProtoArray v5.0), streptavidin-Alexa Fluor 647
Details in all cases: 3'-biotin; 20 mM Tris (pH 7.5), 5 mM MgCl2, 100 mM KCl, 0.1% Tween-20, A/T-rich and random oligonucleotide blockers; temperature not stated; high values mean tight binding
STAP1 = target: T1, STAP1 (UniProt Q9ULZ2)
T1 sequence: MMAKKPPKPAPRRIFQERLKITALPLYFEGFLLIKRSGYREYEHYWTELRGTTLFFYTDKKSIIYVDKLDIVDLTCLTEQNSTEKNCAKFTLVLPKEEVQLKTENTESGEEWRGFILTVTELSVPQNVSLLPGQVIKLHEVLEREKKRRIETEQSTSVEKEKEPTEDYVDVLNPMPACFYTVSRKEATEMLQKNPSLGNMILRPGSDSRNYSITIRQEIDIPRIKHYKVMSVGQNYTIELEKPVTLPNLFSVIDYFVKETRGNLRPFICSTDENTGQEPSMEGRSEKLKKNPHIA

STCH (human) = system: STCH (human)
STEAP4 (human) = system: STEAP4 (human)
STK10 (human) = system: STK10 (human)
STK16 (human) = system: STK16 (human)
STK40 (human) = system: STK40 (human)
STON1 (human) = system: STON1 (human)
STX18 (human) = system: STX18 (human)
STXBP2 (human) = system: STXBP2 (human)
STYX (human) = system: STYX (human)

## GGTGACAGGGGTATGGGGAGGGG [G4-2 biotinylated (Ct1)]
STAP1
  binding signal: 5.96 z-score
STCH (human)
  binding signal: -0.378 z-score
STEAP4 (human)
  binding signal: -0.359 z-score
STK10 (human)
  binding signal: -0.366 z-score
STK16 (human)
  binding signal: -0.372 z-score
STK40 (human)
  binding signal: -0.377 z-score
STON1 (human)
  binding signal: -0.382 z-score
STX18 (human)
  binding signal: -0.386 z-score
STXBP2 (human)
  binding signal: -0.371 z-score
STYX (human)
  binding signal: -0.375 z-score
